Results on 77 sequences are retold here after the supplement of paper PMC3334620.

The full ranking holds about 33,000 sequences; the median of “E-score (-0.5 to 0.5)” is about -0.0034, and the highest 2% start at about 0.25. This is one part of the list.

For this experiment, the target named is T1, Yap3 (UniProt P38749).
T1 sequence: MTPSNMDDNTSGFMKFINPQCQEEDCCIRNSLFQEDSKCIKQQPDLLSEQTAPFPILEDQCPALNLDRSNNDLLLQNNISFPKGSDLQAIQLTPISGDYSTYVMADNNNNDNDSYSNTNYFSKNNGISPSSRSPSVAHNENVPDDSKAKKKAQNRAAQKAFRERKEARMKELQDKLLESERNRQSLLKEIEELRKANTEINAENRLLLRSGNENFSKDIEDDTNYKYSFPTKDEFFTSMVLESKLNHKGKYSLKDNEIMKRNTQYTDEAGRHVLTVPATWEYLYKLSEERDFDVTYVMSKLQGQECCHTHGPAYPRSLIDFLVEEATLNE
The experiment is described as follows: PBM E-score (8-mer binding enrichment) (E-score (-0.5 to 0.5)); higher = stronger / more preferred TF binding. To be noted: protein concentration: 100 nM; construct: GST-full length. The essentials:
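E-scores (a modified Wilcoxon-Mann-Whitney statistic) were assigned by the Universal PBM Analysis Suite to every ungapped eight-base word pooled with its reverse complement. The input came from universal all-10-mer Agilent arrays made double-stranded by primer extension and probed with GST-tagged yeast transcription factors at about 100-200 nM. Fluorescent anti-GST detected bound protein, and masliner normalised the scans.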
Turning to AGTCTCTA, the “PBM E-score” value was -0.0735.

With AATTAGTA, the “PBM E-score” value stood at 0.369.

In the case of CGAAGAAC, the “PBM E-score” value is 0.0703.

In the case of ATTATCTC, the “PBM E-score” value was 0.268.

With AGCTTATG, the “PBM E-score” value stood at 0.122.

Consider CAGTAGAG, for which the “PBM E-score” value is -0.0676.

With CTGGCAAG, the “PBM E-score” value is -0.0263.

Regarding ATTGTTAC, the “PBM E-score” value stood at 0.288.

Turning to AGAGCCGG, the “PBM E-score” value is -0.399.

Regarding CGGTTCGA, the “PBM E-score” value is 0.0689.

For TAAGGAAA, the “PBM E-score” value turned out to be 0.0361.

For the sequence AGGACGCG, the “PBM E-score” value is -0.0853.

CACGACCG: the “PBM E-score” value is -0.187.

As for AGCTCGCG, the “PBM E-score” value was -0.00832.

Turning to ACGCCGAG, the “PBM E-score” value was -0.0717.

Take GAGTCGGA: the “PBM E-score” value worked out at 0.0114.

For the sequence GGTGCAAC, the “PBM E-score” value is -0.138.

In the case of ACAAGTTA, the “PBM E-score” value is 0.16.

With ACGTCTGC, the “PBM E-score” value is -0.0931.

Take AAAAGACG: the “PBM E-score” value was determined as 0.151.

GAAAGCCC: the “PBM E-score” value was -0.161.

Consider ATGAAGAA, for which the “PBM E-score” value came to 0.156.

GCTCATAC: the “PBM E-score” value was -0.144.

In the case of CCAGTATA, the “PBM E-score” value was found to be 0.033.

As for ATCCATAG, the “PBM E-score” value is -0.0876.

As for CCTTAAAA, the “PBM E-score” value is -0.0934.

AGTCTATG: the “PBM E-score” value is -0.0538.

Regarding TATGACGA, the “PBM E-score” value stood at 0.0487.

With CTGCGGTC, the “PBM E-score” value was -0.174.

With ATCAAGCA, the “PBM E-score” value was determined as 0.0599.

Regarding AGTTGTGC, the “PBM E-score” value came to 0.0195.

Turning to CCATCGGG, the “PBM E-score” value was -0.167.

AGGTGCAG: the “PBM E-score” value was -0.123.

As to CCGATTCC, the “PBM E-score” value was found to be 0.00421.

Turning to GGCTGGTA, the “PBM E-score” value is -0.146.

Turning to GAATTCTC, the “PBM E-score” value amounted to 0.0826.

As for AGAGCCCA, the “PBM E-score” value was -0.112.

For the sequence GATCCACC, the “PBM E-score” value is -0.0204.

As to AACGTGGT, the “PBM E-score” value was -0.0828.

Consider ATACTGGC, for which the “PBM E-score” value was -0.0796.

In the case of AACGGTTG, the “PBM E-score” value came out at 0.0717.

Turning to CTACTCAC, the “PBM E-score” value was found to be 0.0272.

Turning to ATTCGGGC, the “PBM E-score” value is -0.117.

Consider ACTCCACA, for which the “PBM E-score” value is -0.00284.

Regarding AAAGTGAA, the “PBM E-score” value worked out at 0.251.

Regarding ACGAATTA, the “PBM E-score” value turned out to be 0.11.

Take AGACGGAA: the “PBM E-score” value was 0.0609.

With TCCCTAAA, the “PBM E-score” value was -0.016.

Consider GAGTATAA, for which the “PBM E-score” value was found to be 0.178.

With ACCAAAGG, the “PBM E-score” value was -0.0982.

Regarding CGTTTTAA, the “PBM E-score” value is 0.126.

Regarding GCGCGGAC, the “PBM E-score” value was -0.0123.

As to GTAATTTA, the “PBM E-score” value stood at 0.238.

With ACCTGAAT, the “PBM E-score” value was found to be 0.199.

For CCCTGGTC, the “PBM E-score” value is -0.323.

For CCCAATGC, the “PBM E-score” value is -0.139.

As for ACATTTTA, the “PBM E-score” value came out at 0.259.

For GCGTTCGA, the “PBM E-score” value amounted to 0.0819.

As to CGGATGGC, the “PBM E-score” value was -0.0745.

Turning to CTAGATTC, the “PBM E-score” value is -0.0068.

Take ATCGAACA: the “PBM E-score” value is -0.101.

As to CTAACTCA, the “PBM E-score” value is -0.0595.

As to CGGGCGGC, the “PBM E-score” value was -0.0509.

With GCCAGAGC, the “PBM E-score” value was -0.239.

For the sequence CCCGCCAA, the “PBM E-score” value was -0.221.

GGCGCAAA: the “PBM E-score” value turned out to be 0.0181.

With AGCCCAAA, the “PBM E-score” value is 0.138.

Regarding AAACTCAA, the “PBM E-score” value came to 0.163.

In the case of CGAAGCGA, the “PBM E-score” value was -0.0743.

Turning to ATGTTTCC, the “PBM E-score” value is 0.0626.

As to AGAGGGAC, the “PBM E-score” value is -0.24.

For CGTGGGTC, the “PBM E-score” value is -0.122.

On to ACAGCAGT, for which the “PBM E-score” value is -0.0583.

Turning to CCTGGTGA, the “PBM E-score” value is -0.0281.

For AAGTGACT, the “PBM E-score” value is -0.00776.

For AACCCGAC, the “PBM E-score” value came out at 0.0906.

As to CAATCTCC, the “PBM E-score” value turned out to be 0.0156.
